Results reported in the supplement of paper PMC11348887.
Counter-ions that a name gives are not always drawn. The list shows a part of the results. Small differences around the control level are noise.

Each compound was assayed on hPSC-derived cortical neurons (WA09) (assay: nucleus area z-score vs screen plate; higher = larger nuclei (more mature)). Settings: 5 µM; treatment: days 7-14 after plating, readout day 21.

Row | Compound | nucleus area z-score
1 | CN(C)CCC(c1ccc(Cl)cc1)c1ccccn1 (centres undefined) [Chlorpheniramine Maleate] | -0.241
2 | COc1ccc(S(=O)(=O)Nc2cccnc2Nc2ccc(O)cc2)cc1 | -4.89
3 | CC[C@]1(O)C[C@@H]2CN(CCc3c([nH]c4ccccc34)[C@@](C(=O)OC)(c3cc4c(cc3OC)N(C)[C@H]3[C@@](O)(C(=O)OC)[C@H](OC(C)=O)[C@]5(CC)C=CCN6CC[C@]43[C@@H]65)C2)C1 [Vinblastine sulfate] | -18.2
4 | CCc1nc(N)nc(N)c1-c1ccc(Cl)cc1 [Pyrimethamine] | -0.943
5 | CC1=C(CC(=O)O)c2cc(F)ccc2/C1=C\c1ccc([S+](C)[O-])cc1 (centres undefined) [Sulindac] | -0.0331
6 | CC(=O)OCC(=O)[C@@]1(O)CC[C@H]2[C@@H]3CCC4=CC(=O)CC[C@]4(C)[C@H]3C(=O)C[C@@]21C [Cortisone acetate] | -0.233
7 | Cn1cc(-c2ccc(F)c(C(F)(F)F)c2)nc1C1CCN(c2ncnc3[nH]ncc23)CC1 | 0.502
8 | CC(C)(C)c1ccc(C(O)CCCN2CCC(C(O)(c3ccccc3)c3ccccc3)CC2)cc1 (centres undefined) [Terfenadine] | -17.3
9 | CCN[C@@H]1C[C@H](N)[C@@H](O[C@H]2OC(CN)=CC[C@H]2N)[C@H](O)[C@H]1O[C@H]1OC[C@](C)(O)[C@H](NC)[C@H]1O [Netilmicin Sulfate] | -0.0415
10 | N#C/C(=C(/N)Sc1ccc(N)cc1)c1ccccc1C(F)(F)F | 2.73
11 | O=C(CNc1ccc2ccccc2c1)N/N=C/c1cc(Br)c(O)c(Br)c1O | 2.68
12 | COC(=O)C1=C(C)NC(C)=C(C(=O)OC2CCCN(Cc3ccccc3)C2)C1c1cccc([N+](=O)[O-])c1 (centres undefined) [Benidipine HCl] | -6.04
13 | C[C@@H]1C[C@H]2[C@@H]3CCC4=CC(=O)C=C[C@]4(C)[C@@]3(Cl)[C@@H](O)C[C@]2(C)[C@@]1(OC(=O)c1ccco1)C(=O)CCl [Mometasone furoate] | 0.652
14 | CCO[C@@H]1OC(=O)C[C@@H]1NC(=O)[C@@H]1CCCN1C(=O)[C@@H](NC(=O)c1ccc(N)c(Cl)c1)C(C)(C)C | 2.31
15 | Nc1nc2c(ncn2COC(CO)CO)c(=O)[nH]1 [Ganciclovir] | 0.286
16 | CC(C)C(=O)OCC(=O)[C@@]12O[C@H](C3CCCCC3)O[C@@H]1C[C@H]1[C@@H]3CCC4=CC(=O)C=C[C@]4(C)[C@H]3[C@@H](O)C[C@@]12C [Ciclesonide] | 1.04
17 | Cc1[nH]c(/C=C2\C(=O)Nc3ccc(S(=O)(=O)N(C)c4cccc(Cl)c4)cc32)c(C)c1C(=O)N1CCN(C)CC1 | 1.22

Single entries from the results shown.
nucleus area z-score with Cn1cc(-c2ccc(F)c(C(F)(F)F)c2)nc1C1CCN(c2ncnc3[nH]ncc23)CC1 is entered as 0.502
nucleus area z-score with CCN[C@@H]1C[C@H](N)[C@@H](O[C@H]2OC(CN)=CC[C@H]2N)[C@H](O)[C@H]1O[C@H]1OC[C@](C)(O)[C@H](NC)[C@H]1O [Netilmicin Sulfate] is entered as -0.0415

(list continues)

Row | Compound | nucleus area z-score
18 | Cc1[nH]c2ccccc2c1CCNCc1ccc(/C=C/C(=O)NO)cc1 [Panobinostat (LBH589)] | -6.31
19 | CC(C)[C@H](C(=O)Nc1ccc(C(=O)NO)cc1)c1ccccc1 | -17.1
20 | COc1ccc(-c2coc3cc(O)ccc3c2=O)cc1 [Formononetin] | -0.0849
21 | O=C(NOCCO)c1ccc2cncn2c1Nc1ccc(I)cc1F | 0.0742
22 | NC1(Cc2ccc(Cl)cc2)CCN(c2ncnc3[nH]ccc23)CC1 | -0.152
23 | O=C(O)c1cc(C(F)(F)F)ccc1N1CC[C@H](OCc2ccccn2)C1 | -0.263
24 | O=C1Nc2ccccc2/C1=C1/Nc2ccccc2C1=O [Indirubin] | -0.926
25 | CN(C)c1ccc2nc3ccc(=[N+](C)C)cc-3sc2c1 [Methylene Blue] | -3.21
26 | Cc1nc(Nc2ncc(C(=O)Nc3c(C)cccc3Cl)s2)cc(N2CCN(CCO)CC2)n1 [Dasatinib] | 1.3
27 | O=C(c1ccc(/C=C/c2n[nH]c3ccccc23)cc1)N1CCNCC1 | 0.675
28 | COc1cc(C=O)ccc1O [Vanillin] | 2.67
29 | CCn1cc(C(=O)O)c(=O)c2cc(F)c(N3CCNC(C)C3)c(F)c21 (centres undefined) [Lomefloxacin HCl] | 0.128
30 | Nc1ccc(S(=O)(=O)Nc2ncccn2)cc1 [Sodium sulfadiazine] | 0.703
31 | CCCN[C@H]1CCc2nc(N)sc2C1 [Pramipexole 2HCl Monohydrate] | 0.531
32 | N=C(N)NC(=N)NCCc1ccccc1 [Phenformin HCl] | 0.427
33 | CC1(C)O[C@@H]2C[C@H]3[C@@H]4C[C@H](F)C5=CC(=O)C=C[C@]5(C)[C@@]4(F)[C@@H](O)C[C@]3(C)[C@]2(C(=O)CO)O1 [Fluocinolone Acetonide] | 1.04
34 | Cc1ccc(S(=O)(=O)n2c(N)nc3ccccc32)cc1 [ML130 (Nodinitib-1)] | -0.288
